According to PubChem BioAssay AID1487 (National Center for Advancing Translational Sciences (NCATS), 2009):
The list shows a part of the results. Further columns of the screen follow, without active or inactive calls. The list favours compounds with an active or inconclusive main result. The note in brackets gives the kind of curve behind each potency; many fits are weak.

Assay: qHTS Assay for Modulators of Lamin A Splicing
Settings: HeLa LMNA splicing GFP/RFP minigene ratio, 48 h
In short: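 S3 HeLa cells stably expressing lamin A-EGFP splicing minigene plus DsRed2, 600 cells/well, 48 h compound exposure at 37C. Laser-scanning cytometry; analysed as GFP (500-530 nm)/RFP (575-640 nm) total intensity ratio; 0.5% DMSO vehicle.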

[1] = measured here: RFP viability control channel
[2] = measured here: GFP splicing reporter channel

Structure (SMILES) | AC50 [1] | AC50 [2]
CCCCNC(=O)c1onc(CSc2ccc(C(C)C)cc2)c1C(=O)O | 5.62 µM [falling, single point] | 
COc1ccc(N2CCN(c3cc(C)c4ccc(C)cc4n3)CC2)cc1 |  | 22.4 µM [falling, single point]
O=c1[nH]c(CN2CCN(c3ccc([N+](=O)[O-])cc3)CC2)nc2ccsc12 | 12.6 µM [rising, partial curve] | 10 µM [rising, partial curve]
COCCn1nnnc1C(c1cc2ccc(C)cc2[nH]c1=O)N(Cc1ccco1)Cc1cccs1 (stereo unspecified) | 12.6 µM [rising, partial curve] | 15.8 µM [rising, partial curve]
CCCCOc1ccc(C(=O)NCc2ccncc2)cc1 | 22.4 µM [rising, single point] | 
COCCCNC(=O)Cn1cc(/C=C(\C#N)C(=O)N2CCN(c3ccccc3)CC2)c2ccccc21 | 10 µM [rising, partial curve] | 
COc1ccc(O)c(C(=O)/C=C/c2cc3ccccc3o2)c1 | 8.91 µM [falling, partial curve] | 35.5 µM [falling, single point]
COc1ccc(Cl)cc1NC(=O)CN(C)C(C)C(=O)NCC1CCCCC1 (stereo unspecified) | 28.2 µM [rising, single point] | 20 µM [rising, partial curve, poor fit]
CCCCC[C@H](O)/C=C/[C@@H]1[C@@H](C/C=C\CCCC(=O)O)[C@H]2CO[C@@H]1C2 | 35.5 µM [rising, single point] | 
CCCc1nn2c(=O)cc(COC(=O)c3cccs3)nc2s1 |  | 0.0158 µM [falling, full curve, poor fit]
COc1cc(C2C(C#N)=C(N)Oc3cc(N(C)C)ccc32)cc2c1OCO2 (stereo unspecified) | 0.251 µM [falling, full curve] | 0.158 µM [falling, full curve]
O=C(c1cc2nc(-c3ccco3)cc(C(F)(F)F)n2n1)N1CCN(c2ccccn2)CC1 | 31.6 µM [rising, single point] | 
O=S(=O)(c1cccc(F)c1)N1CCC(CO)(Cc2cccc(F)c2)CC1 |  | 35.5 µM [falling, single point]
COc1ccc([N+](=O)[O-])cc1NC(=O)Nc1cccc(Cl)c1 | 10 µM [rising, partial curve] | 11.2 µM [rising, partial curve]
Cc1[nH]c2ccccc2c1C(=O)CCl |  | 0.112 µM [falling, partial curve, poor fit]
CN1C(=O)Cc2cc(S(=O)(=O)N3CCN(c4cccc(C(F)(F)F)c4)CC3)ccc21 | 2.82 µM [falling, full curve] | 0.178 µM [falling, full curve, poor fit]
Cc1nc2sc(C(c3ccc(Cl)cc3)N3CCN(c4ccccc4F)CC3)c(O)n2n1 (stereo unspecified) | 17.8 µM [rising, single point] | 11.2 µM [rising, partial curve, poor fit]
COc1ccccc1C(=O)NCc1nnnn1-c1ccc(C)c(C)c1 | 0.282 µM [rising, full curve, poor fit] | 0.316 µM [rising, full curve, poor fit]
Cc1cc(C)n(Cc2ccc(NC(=O)c3ccc(COc4ccccc4Br)cc3)cc2)n1 | 35.5 µM [falling, single point] | 
CC[n+]1c(/C=C/N(C)c2ccccc2)oc2ccccc21 | 12.6 µM [rising, partial curve] | 
CC(C)(C)N/N=C/c1c(O)n(-c2ccc(Cl)cn2)c(=O)c2ccccc12 | 0.126 µM [rising, full curve, poor fit] | 2.51 µM [rising, single point]
COc1ccc(NC(=O)c2sc(Cl)nc2-c2ccccc2)cc1 | 35.5 µM [rising, single point] | 
CCCCS(=O)CC(O)COc1ccc(C(C)(C)C)cc1 (stereo unspecified) | 22.4 µM [rising, partial curve] | 
O=C(Nc1nnc(CSCc2ccc(F)cc2)s1)c1cccc([N+](=O)[O-])c1 | 35.5 µM [rising, single point] | 35.5 µM [rising, single point]
Cc1oc(=O)c(NC(=O)c2cccc(Cl)c2)cc1C(=O)c1ccccc1 | 35.5 µM [falling, single point] | 17.8 µM [falling, single point]
O=[N+]([O-])c1ccccc1/C=N/N1CCN(c2ccncc2S(=O)(=O)N2CCCCC2)CC1 | 28.2 µM [rising, single point] | 14.1 µM [rising, single point]
COc1ccc(-c2c(C#N)c(N)nc3c2CCc2ccccc2-3)cc1OC | 35.5 µM [falling, single point] | 20 µM [falling, partial curve]

Structure (SMILES) | AC50 [1] | AC50 [2]
O=c1ccc(Cc2ccc(Cl)cc2)n[nH]1 |  | 0.0501 µM [falling, full curve, poor fit]
O=C(CN1CCN(S(=O)(=O)c2ccccc2)CC1)Nc1cccc(C(F)(F)F)c1 | 11.2 µM [rising, partial curve] | 11.2 µM [rising, partial curve]
CC1=C(C(=O)Nc2cccc(F)c2)C(c2ccsc2)C2=C(CC(C)(C)CC2=O)N1 (stereo unspecified) | 5.62 µM [rising, single point] | 
CSc1cccc(NC(=O)/C=C/c2cccc(Cl)c2)c1 | 25.1 µM [rising, single point] | 35.5 µM [rising, single point]
COc1cc(NC(=O)N2CCN(c3cc(-c4noc(C)n4)ccc3C)CC2)cc(OC)c1OC |  | 0.501 µM [falling, full curve, poor fit]
O=c1[nH]c(=O)n(C2C[C@H](O)[C@@H](CO)O2)cc1C(F)(F)F (stereo partly specified) | 1.41 µM [rising, full curve] | 12.6 µM [falling, single point]
CC(=O)c1ccc(NC(=S)Nc2ccc(N3CCOCC3)cc2)cc1 |  | 0.0126 µM [falling, partial curve, poor fit]
CCOC(=O)CN(C(=O)CSc1nnc2c(n1)[nH]c1ccc(OC)cc12)c1ccc(F)cc1 | 35.5 µM [rising, single point] | 
O=C(CSc1ccc(Cl)cc1)Nc1ccc(-c2nc3ccccc3[nH]2)cc1 | 0.224 µM [rising, full curve, poor fit] | 
Cc1ccc(C2=CC(C)(c3ccc(C)cc3)Nc3nc(C(F)(F)F)nn32)cc1 (stereo unspecified) |  | 31.6 µM [rising, single point]
Cc1nnc(SCc2ccccc2)n1N | 11.2 µM [rising, single point] | 
CC(C)c1ccc(OCC(O)Cn2cnc3ccccc32)cc1 (stereo unspecified) | 10 µM [rising, partial curve] | 2.82 µM [rising, single point]
CCOC(=O)C1(CC2CC2)CCN(Cc2cn[nH]c2-c2ccccc2)CC1 | 0.1 µM [rising, full curve, poor fit] | 
CCCOc1ccc(C2C(=O)N(C3CCCCCC3)CC(=O)N2CCCOCC)cc1OC (stereo unspecified) | 1.41 µM [rising, full curve, poor fit] | 
CCOC(=O)c1c(C)[nH]c(C(=O)COC(=O)COc2ccccc2C)c1C |  | 2.51 µM [falling, full curve, poor fit]
CCOc1ccccc1Nc1nc(-c2sc(NC(=O)c3ccc([N+](=O)[O-])cc3)nc2C)cs1 | 35.5 µM [falling, single point] | 35.5 µM [falling, single point]
Cc1ccc(OCc2n[nH]c(=S)n2C2CCCCC2)cc1 | 14.1 µM [rising, single point] | 
CNC(=O)COC(=O)/C=C/c1ccc(F)cc1 |  | 8.91 µM [falling, partial curve]
O=C(Nc1nnc(C(F)(F)F)s1)C1COc2ccccc2O1 (stereo unspecified) | 12.6 µM [rising, single point] | 
O=[N+]([O-])c1cccc(C(=S)N2CCN(c3ccccc3F)CC2)c1 | 15.8 µM [rising, partial curve] | 
CN(CC(O)CON=C1c2ccccc2-c2ccccc21)S(=O)(=O)c1ccc(Br)cc1 (stereo unspecified) | 12.6 µM [falling, single point] | 15.8 µM [falling, partial curve, poor fit]
O=C(Nc1ccc(Cl)cc1)N1CCOC12CCC1(CC2)OCCO1 |  | 0.0316 µM [falling, full curve, poor fit]
CC(=O)c1ccc(NC(=O)COC(=O)c2c3c(nc4ccccc24)/C(=C\c2cccs2)CCC3)cc1 |  | 0.0398 µM [falling, full curve, poor fit]
C(=N\Nc1nc2ccccc2s1)/c1ccco1 | 11.2 µM [rising, single point] | 12.6 µM [rising, single point]
O=S(=O)(Nc1cccc(-c2ccc(N3CCOCC3)nn2)c1)c1ccc(F)cc1F |  | 0.0224 µM [falling, full curve, poor fit]
Nc1[nH]nc2nc(NCc3ccccc3)c3c(c12)CCN(Cc1ccccc1)C3 | 11.2 µM [rising, partial curve] | 
CCC(=O)NC(=S)Nc1cccc(Cl)c1N1CCCCC1 | 17.8 µM [falling, partial curve] | 35.5 µM [falling, single point]

Rewritten in markdown: entries from further up

| Structure (SMILES) | AC50 [1] | AC50 [2] |
| --- | --- | --- |
| CCOC(=O)C1(CC2CC2)CCN(Cc2cn[nH]c2-c2ccccc2)CC1 | 0.1 µM [rising, full curve, poor fit] |  |
| CCCOc1ccc(C2C(=O)N(C3CCCCCC3)CC(=O)N2CCCOCC)cc1OC (stereo unspecified) | 1.41 µM [rising, full curve, poor fit] |  |
| CCOC(=O)c1c(C)[nH]c(C(=O)COC(=O)COc2ccccc2C)c1C |  | 2.51 µM [falling, full curve, poor fit] |
| CCOc1ccccc1Nc1nc(-c2sc(NC(=O)c3ccc([N+](=O)[O-])cc3)nc2C)cs1 | 35.5 µM [falling, single point] | 35.5 µM [falling, single point] |
